Laboratory results taken from paper PMC5643558.

Columns and labels:
SFB-PFKP (human) = target: T1, SFB-PFKP (human) (UniProt Q01813); assay: pull-down; 293T cells co-transfected with SFB-PFKP and WT HA-TRIM21 or its truncation mutants for 24 h; pull-down of SFB-PFKP
T1 sequence: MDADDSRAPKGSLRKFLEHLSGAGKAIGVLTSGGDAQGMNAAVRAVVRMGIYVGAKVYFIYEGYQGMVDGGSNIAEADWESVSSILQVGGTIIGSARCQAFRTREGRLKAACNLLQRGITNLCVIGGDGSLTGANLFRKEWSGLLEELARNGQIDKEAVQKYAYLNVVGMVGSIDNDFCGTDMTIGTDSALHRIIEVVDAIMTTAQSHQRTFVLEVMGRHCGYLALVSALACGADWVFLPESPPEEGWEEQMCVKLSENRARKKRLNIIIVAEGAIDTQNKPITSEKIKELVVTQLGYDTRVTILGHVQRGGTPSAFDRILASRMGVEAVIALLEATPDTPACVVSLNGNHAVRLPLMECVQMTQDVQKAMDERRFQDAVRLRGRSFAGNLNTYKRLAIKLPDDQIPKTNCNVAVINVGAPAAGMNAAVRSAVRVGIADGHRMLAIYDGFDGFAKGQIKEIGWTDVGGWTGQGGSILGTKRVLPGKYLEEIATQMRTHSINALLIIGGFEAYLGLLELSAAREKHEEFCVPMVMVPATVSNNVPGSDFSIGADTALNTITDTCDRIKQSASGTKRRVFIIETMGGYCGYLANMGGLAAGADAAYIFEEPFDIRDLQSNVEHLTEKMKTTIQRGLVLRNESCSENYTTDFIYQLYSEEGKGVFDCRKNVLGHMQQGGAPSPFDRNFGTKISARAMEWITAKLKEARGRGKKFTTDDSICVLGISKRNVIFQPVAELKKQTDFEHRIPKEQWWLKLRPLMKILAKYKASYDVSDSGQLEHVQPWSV

[1] = target: T2, endogenous PFKP (phosphofructokinase 1 platelet isoform) (human (endogenous in U251, U87/EGFR, U87/EGFRvIII and 293T)) (UniProt Q01813); assay: co-IP; endogenous proteins; immunoprecipitation with an anti-PFKP antibody; serum-starved U251 cells with or without EGF (100 ng/ml) for the indicated times; also U87/EGFR cells
T2 sequence: T1 sequence

Substance	binding (SFB-PFKP (human))	binding [1]
HA-TRIM21 with deletion of the C-terminal SPRY domain (human) (domain or fragment)	no binding	–
endogenous AKT (human (endogenous in U251 and U87/EGFR))	–	binds

No constants are given. Whether binding was seen depends on the method and setting. In cells and extracts the contact can be indirect. For some assays here: Binding can be weak; no strength is given.
